Results reported in PubChem BioAssay AID222 (DTP/NCI, 2004).
The list shows only some results of the screen, not a fair sample: it gathers some chemical classes. Not every dose and run of a compound is shown. T/C: endpoint of the treated group in % of that of the vehicle group. Where survival is the endpoint, the PubChem record calls one and a half times the control and up active, and a quarter to a half above the control has no call in these data; cut-offs in other NCI protocols can differ. Some entries show no survivor count and are marked so; the dose need not have been tolerated. Schedules are NCI's codes, read here as Q, the interval in days (D) or hours (H), X, the number of doses.

System: C57BL/6 mice, intracerebral ependymoblastoma, median survival T/C
Experiment: NCI In Vivo Anticancer Drug Screen. Data for tumor model Ependymoblastoma (intracerebral) in C57BL/6 mice
Conditions: T/C endpoint: median survival time, schedule: Q01DX005 (ip), vehicle: saline, higher T/C = longer survival
Procedure: The antitumor activity of compounds was measured in mice bearing transplantable tumors. Survival or tumor size were measured and the results are expressed as the measurement made in the treated group (T) divided by the measurement made in the vehicle treated control group (C). The tumor model used in this assay is Ependymoblastoma (intracerebral) in C57BL/6 mice

Cc1ccc(C(=O)O)cc1N(CCCl)CCCl
T/C (dose: 3.12 mg/kg/injection): 101 % of control [survivor count not shown]
T/C (dose: 6.25 mg/kg/injection): 94 % of control [survivor count not shown]
T/C (dose: 12.5 mg/kg/injection): 102 % of control [survivor count not shown]
